Data taken from PubChem BioAssay AID1347426 (Functional Genomics Laboratory (NCATS/FGL), 2020).
Among all 31,000 sequences or so, about 1,400 (4.5%) were called active.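 Rule for the calls: active = median seed-adjusted z-score above 1 or below -1; inactive = the rest.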 Some of the results follow.

Test: Novel Modifiers of Survival Motor Neuron (SMN) Protein: Gene Identification via Genome-wide siRNA Screen;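 note: luminescence tracks full-length SMN protein made from the SMN2 reporter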
Details: HEK293T SMN2-luciferase reporter, siRNA knockdown, 72 h; actives lie on both sides
In short: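 siRNA screen, 10418 genes ×3 siRNAs; 1 pmol/well, lipid reverse transfection into HEK293T SMN2-luc reporter line. 72 h, 37 °C, 5% CO2; ONE-Glo readout. Data: neg-ctrl normalized, log10, MAD; hit = MAD >1.0 or < -1.0.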

Sequence | median seed-adjusted z-score
GCAUCUCUGAGAAGAUCUATT against P11 | inactive: 0.14
CGACUGAUUACAUACCGGUTT against TRIM24 | inactive: -0.22
GCAUCAUCCGGAAGCCAGATT against SPDEF | inactive: -0.607
GACUCAUAUGGACCAGUUATT against ZNF460 | inactive: -0.302
GCUCAACUUUCACCAAUAATT against SLC5A7 | inactive: 0.624
GGAAUACUCAGAUCGGGAATT against MAP3K3 | inactive: -0.182
CGGAAAUGAUCAUAACCAATT against TBX5 | inactive: 0.143
GCAGUAGAAGUAUUUCGUUTT against AGXT2 | inactive: 0.17
GGAGAACGGUUUCUUAUAATT against POLN | inactive: -0.129
GGAAAGUGAUGUCAGAAUATT against KRT7 | inactive: 0
GGAGUACCUGCAUAACUAUTT against MAST3 | inactive: -0.642
GUCUCAGACUUGAUCCGCATT against MSH5 | inactive: -0.444
GCUGGUUUGUUACGCCUUUTT against SLC4A10 | inactive: 0.026
GGUUUGUGCUUCAACCCAATT against SYTL5 | inactive: 0.192
GCCUGGGUCAAAUACAGUATT against KLHL20 | inactive: -0.0828
GCAUCGUGGAGCACUCAUATT against APOL3 | inactive: -0.0761
CGGUAAUAGCAAUUCAGCATT against HEATR6 | inactive: 0
GCUCCCUGCUCAAGACCUATT against TST | inactive: 0
AGCGUGAGAUGGAGCGAAATT against CENTB5 | inactive: 0.183
GCAUCGAUCAAUUAUUGGATT against IL7 | inactive: 0.253
GGAUGACGGUGUCAUUGGUTT against CLCN4 | inactive: 0
CGAGUGUCUUCACUACAAATT against IL3RA | inactive: -0.951
AGUACAUGUUGGUGCGCUATT against CHST1 | inactive: 0.181

Some values from the results shown.
median seed-adjusted z-score with CGACUGAUUACAUACCGGUTT against TRIM24 is entered as inactive: -0.22
median seed-adjusted z-score with GCAUCGAUCAAUUAUUGGATT against IL7 is entered as inactive: 0.253

Some of the entries so far, with each value named:
GGAGUACCUGCAUAACUAUTT against MAST3
  median seed-adjusted z-score: inactive: -0.642
GGUUUGUGCUUCAACCCAATT against SYTL5
  median seed-adjusted z-score: inactive: 0.192

Carrying on.

Sequence | median seed-adjusted z-score
CAGAGUUUAUUGAUCCUUUTT against ELL2 | inactive: 0.459
CGAAUAUACCAGGACGAAATT against SATB1 | inactive: 0
CCAGAACUCGGCUUGAAGATT against NPY | inactive: -0.0606
CUGGUUCAGUGGAGACAGATT against RNF175 | inactive: 0.127
GGUUUUCUCGAAUCCAUGATT against MMP2 | inactive: 0.0467
CGCUGAUACUGACUACAGUTT against CNGA4 | inactive: 0.125
GUAGAACUGUUACCAUUAATT against POLK | inactive: -0.102
GCAAUAAUCUGCAAGUUUUTT against TBX19 | inactive: 0.327
AGAUGGAGUUCAUCGACAATT against SRF | inactive: -0.393
GUUCAAAAGAGGCUAAAGATT against DACH1 | inactive: 0.562
GGUUCAUCUAAGAACAAGATT against PKNOX1 | inactive: 0.68
AGACCAUCGAAGAUUUCCATT against KRT36 | inactive: 0.766
CAGAGAUCUUGGAUCGCUATT against PCDH15 | inactive: -0.712
CGUACGCUACUUUCUCUUUTT against GPRC5D | inactive: -0.038
AGUCAAGAACAAUACCCAATT against SNRPD2 | inactive: -0.849
GGAACAAGUAUUUAGGAAATT against CAPSL | inactive: -0.168
GGACACCAGCGAAAACGAATT against KIF5A | inactive: -0.348
AGAAGAUUUUAGCUAGUAATT against CHRAC1 | inactive: 0.193
GGACCGCAGCAAUGACAUUTT against SH3KBP1 | inactive: -0.34
CCCUGACUCUUGGAUAUGATT against MEOX1 | inactive: 0.0171
GCUACGUCUUUGCCCAGGATT against SBK1 | inactive: 0.0587
GCACGGCUUUAAUAGAAGUTT against PARP15 | inactive: -0.332
GGAAAAGAAAGUUACUGGATT against IFIT2 | inactive: -0.0205

Sequence | median seed-adjusted z-score
CAUCACCUUUUCUACUGAATT against LRIT3 | inactive: 0.0324
CGGUUUGAACGGUUCCGAATT against TOM1 | inactive: 0.774
AAGUGGAAGCGAAGCCGAATT against HMGN1 | inactive: -0.183
GGCUUAAGAUGAUGUUUGATT against LIMA1 | inactive: -0.359
ACAUCUAUAUGGACUCAGATT against PCTP | inactive: 0.446
GCAAGAAUCAGAUAUCGGATT against SLIT3 | inactive: -0.453
CUGUAAUUAUGGAAACGGATT against SCUBE1 | inactive: 0.673
GGAGGAGAGUCGCUACCUATT against CREBZF | inactive: 0.424
CGACUGGAUGUAUAAGCAUTT against TGIF2LX | inactive: -0.568
GGAAUAGAAUUAGUUCGAATT against RBM44 | inactive: -0.00558
GCUGUCAGCCCAUUCUAUATT against RAX2 | inactive: 0.345
GUAUGAUUGGUGUAACUCATT against DHX40 | inactive: -0.75
GCAGUUGGAGAGAUAAUAATT against VRK1 | inactive: -0.148
GCAUGGAAACAGCACCUAATT against ZNF131 | inactive: 0.645
AGAAUACGCUGGACCGCUATT against KCND1 | inactive: -0.359
GAACCAUGGAUGGUGAUAATT against ZNF287 | inactive: 0.0213
GCUACAGUCUCUACCCUGATT against BARX1 | active: 1.63
GAGCAUCGACUGUACGAAATT against DHX34 | inactive: -0.269
GACAACUAUUCCAAUAUUATT against MTMR6 | inactive: -0.395
CCACGUUCAUUUAACUGAATT against HEMK1 | inactive: 0.101
UCAUCUCACUGAAUGAAAATT against CHRNE | inactive: 0.349
CCAGCGCACCUUUGCCUAUTT against TRIM46 | inactive: 0.034
GGAUGGACAUCAUAACCAUTT against ADI1 | inactive: 0.0593
